In article PMC9931222:
These are yes or no findings as the source states them, for the method shown. Binding seen in cells or lysates may run through a third protein. Some results given as binding are weak or reduced against the parent protein; the word gives no strength. Sequences can lack the tags named with a protein.

Molecular target: T1, Glu-tagged KSR1 (UniProt Q61097)
T1 sequence: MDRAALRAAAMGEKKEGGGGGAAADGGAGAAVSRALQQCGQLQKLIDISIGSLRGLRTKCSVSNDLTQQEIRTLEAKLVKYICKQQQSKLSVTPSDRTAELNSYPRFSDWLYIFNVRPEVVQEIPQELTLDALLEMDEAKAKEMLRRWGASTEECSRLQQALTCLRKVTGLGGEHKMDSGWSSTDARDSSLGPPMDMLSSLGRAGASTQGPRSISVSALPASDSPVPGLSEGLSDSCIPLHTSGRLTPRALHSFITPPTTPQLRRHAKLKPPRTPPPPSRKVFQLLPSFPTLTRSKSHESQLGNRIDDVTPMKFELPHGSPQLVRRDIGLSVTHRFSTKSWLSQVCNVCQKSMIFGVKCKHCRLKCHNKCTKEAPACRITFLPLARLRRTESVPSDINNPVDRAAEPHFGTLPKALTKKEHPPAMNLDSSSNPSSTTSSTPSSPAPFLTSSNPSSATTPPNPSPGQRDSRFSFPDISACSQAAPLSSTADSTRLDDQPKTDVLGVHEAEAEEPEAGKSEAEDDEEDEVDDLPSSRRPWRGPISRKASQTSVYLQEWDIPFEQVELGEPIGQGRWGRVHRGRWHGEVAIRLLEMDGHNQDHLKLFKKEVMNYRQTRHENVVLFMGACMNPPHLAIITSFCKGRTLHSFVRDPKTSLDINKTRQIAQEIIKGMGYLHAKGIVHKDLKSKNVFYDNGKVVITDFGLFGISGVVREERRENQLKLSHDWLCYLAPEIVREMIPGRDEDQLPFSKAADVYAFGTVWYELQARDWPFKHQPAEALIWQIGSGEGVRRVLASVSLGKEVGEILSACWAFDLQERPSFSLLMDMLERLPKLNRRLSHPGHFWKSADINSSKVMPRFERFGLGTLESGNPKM
Test: co-IP; HEK293T transfected with Glu- and Flag-tagged KSR1 constructs; EGF-stimulated where indicated; preimmune serum as control

binding: binds
B1: Flag-tagged KSR1 C809Y (protein, UniProt Q61097 1-873)
chain: MDRAALRAAAMGEKKEGGGGGAAADGGAGAAVSRALQQCGQLQKLIDISIGSLRGLRTKCSVSNDLTQQEIRTLEAKLVKYICKQQQSKLSVTPSDRTAELNSYPRFSDWLYIFNVRPEVVQEIPQELTLDALLEMDEAKAKEMLRRWGASTEECSRLQQALTCLRKVTGLGGEHKMDSGWSSTDARDSSLGPPMDMLSSLGRAGASTQGPRSISVSALPASDSPVPGLSEGLSDSCIPLHTSGRLTPRALHSFITPPTTPQLRRHAKLKPPRTPPPPSRKVFQLLPSFPTLTRSKSHESQLGNRIDDVTPMKFELPHGSPQLVRRDIGLSVTHRFSTKSWLSQVCNVCQKSMIFGVKCKHCRLKCHNKCTKEAPACRITFLPLARLRRTESVPSDINNPVDRAAEPHFGTLPKALTKKEHPPAMNLDSSSNPSSTTSSTPSSPAPFLTSSNPSSATTPPNPSPGQRDSRFSFPDISACSQAAPLSSTADSTRLDDQPKTDVLGVHEAEAEEPEAGKSEAEDDEEDEVDDLPSSRRPWRGPISRKASQTSVYLQEWDIPFEQVELGEPIGQGRWGRVHRGRWHGEVAIRLLEMDGHNQDHLKLFKKEVMNYRQTRHENVVLFMGACMNPPHLAIITSFCKGRTLHSFVRDPKTSLDINKTRQIAQEIIKGMGYLHAKGIVHKDLKSKNVFYDNGKVVITDFGLFGISGVVREERRENQLKLSHDWLCYLAPEIVREMIPGRDEDQLPFSKAADVYAFGTVWYELQARDWPFKHQPAEALIWQIGSGEGVRRVLASVSLGKEVGEILSAYWAFDLQERPSFSLLMDMLERLPKLNRRLSHPGHFWKSADINSSKVMPRFERFGLGTLESGNPKM
